From US20210169075A1, “ANTIBIOFILM FORMULATIONS AND METHODS FOR MICROBIAL DECONTAMINATION” (priority 2019, published 2021)
Entries after “also recorded” stand apart in the source; their conditions may differ.

Assay: SEM of tubing after neat chemical treatment
Conditions: neat chemical for 24 hours

CCCCCC [hexane]
physical damage of tubing by SEM: no physical abnormalities; also recorded: little to no physical damage
